PubChem BioAssay AID720710 – VTT Finland, 2013
Here is an unselected part of about 1,380 reagents tested. 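One array per condition without replicates; hydroxyurea arrays received 2 mM for 16 h plus 3 h recovery.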 Reagents against one gene are numbered here. Not all columns of the deposit are shown.

- Assay: 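Knock-downs that leave cyclin E-high cells sensitive to replication stress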 (primary screen)
- System: human U-2 OS bone cancer cells, parental and a cyclin E (CCNE1) overexpressing line
- Reagents: single siRNA against human genes, 1 µM siRNA in the printed spot mix
- Duration: 67 h
- Treatment: half the arrays: hydroxyurea 2 mM for 16 h, then 3 h recovery; other arrays untreated
- Measured: 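DNA synthesis measured as imaged EdU uptake per nucleus (DAPI) at 67 h, normalised to subgrid median and given as z-score versus non-targeting controls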
- Direction: EdU z-score, cyclin E line, hydroxyurea and EdU z-score, parental, hydroxyurea: higher = more DNA synthesis than non-targeting controls

DLGAP5 #1: EdU z-score, cyclin E line, hydroxyurea = -1.26; EdU z-score, parental, hydroxyurea = 2.82
DLGAP5 #2: EdU z-score, cyclin E line, hydroxyurea = 1.01; EdU z-score, parental, hydroxyurea = 3.47
H1-5 #1: EdU z-score, cyclin E line, hydroxyurea = -2; EdU z-score, parental, hydroxyurea = -0.657
H1-5 #2: EdU z-score, cyclin E line, hydroxyurea = 0.642; EdU z-score, parental, hydroxyurea = -0.631
GTF2H2 #1: EdU z-score, cyclin E line, hydroxyurea = -0.647; EdU z-score, parental, hydroxyurea = -0.384
GTF2H2 #2: EdU z-score, cyclin E line, hydroxyurea = -0.402; EdU z-score, parental, hydroxyurea = 0.328
TCF7L1 #1: EdU z-score, cyclin E line, hydroxyurea = -1.7; EdU z-score, parental, hydroxyurea = -0.608
TCF7L1 #2: EdU z-score, cyclin E line, hydroxyurea = 1.28; EdU z-score, parental, hydroxyurea = 2.98
SGK1 #1: EdU z-score, cyclin E line, hydroxyurea = -1.3; EdU z-score, parental, hydroxyurea = -1.73
SGK1 #2: EdU z-score, cyclin E line, hydroxyurea = -0.14; EdU z-score, parental, hydroxyurea = 1.5
PARP2 #1: EdU z-score, cyclin E line, hydroxyurea = 0.17; EdU z-score, parental, hydroxyurea = 0.909
PARP2 #2: EdU z-score, cyclin E line, hydroxyurea = 1.15; EdU z-score, parental, hydroxyurea = 1.16
KAT7 #1: EdU z-score, cyclin E line, hydroxyurea = -2.84; EdU z-score, parental, hydroxyurea = -2.72
KAT7 #2: EdU z-score, cyclin E line, hydroxyurea = 0; EdU z-score, parental, hydroxyurea = 0.84

The list goes on; the last 3 above are carried over.
PARP2 #2: EdU z-score, cyclin E line, hydroxyurea = 1.15; EdU z-score, parental, hydroxyurea = 1.16
KAT7 #1: EdU z-score, cyclin E line, hydroxyurea = -2.84; EdU z-score, parental, hydroxyurea = -2.72
KAT7 #2: EdU z-score, cyclin E line, hydroxyurea = 0; EdU z-score, parental, hydroxyurea = 0.84
H4C3 #1: EdU z-score, cyclin E line, hydroxyurea = -1.96; EdU z-score, parental, hydroxyurea = 0.0222
H4C3 #2: EdU z-score, cyclin E line, hydroxyurea = -0.151; EdU z-score, parental, hydroxyurea = 3.31
MSH4 #1: EdU z-score, cyclin E line, hydroxyurea = -0.653; EdU z-score, parental, hydroxyurea = -3.41
MSH4 #2: EdU z-score, cyclin E line, hydroxyurea = -0.0327; EdU z-score, parental, hydroxyurea = 1.86
BLM #1: EdU z-score, cyclin E line, hydroxyurea = 0.305; EdU z-score, parental, hydroxyurea = -8.83
BLM #2: EdU z-score, cyclin E line, hydroxyurea = 1.08; EdU z-score, parental, hydroxyurea = -0.356
UBR5 #1: EdU z-score, cyclin E line, hydroxyurea = -0.0048; EdU z-score, parental, hydroxyurea = -3.37
UBR5 #2: EdU z-score, cyclin E line, hydroxyurea = 0.598; EdU z-score, parental, hydroxyurea = -0.29
ID3 #1: EdU z-score, cyclin E line, hydroxyurea = -0.0233; EdU z-score, parental, hydroxyurea = 0.355
ID3 #2: EdU z-score, cyclin E line, hydroxyurea = 0.463; EdU z-score, parental, hydroxyurea = 0.985
CFAP65 #1: EdU z-score, cyclin E line, hydroxyurea = 0.61; EdU z-score, parental, hydroxyurea = -0.759
CFAP65 #2: EdU z-score, cyclin E line, hydroxyurea = 1.1; EdU z-score, parental, hydroxyurea = 3.14
SOD2 #1: EdU z-score, cyclin E line, hydroxyurea = 0.391; EdU z-score, parental, hydroxyurea = -1.24
SOD2 #2: EdU z-score, cyclin E line, hydroxyurea = 1.22; EdU z-score, parental, hydroxyurea = 3.47
NAP1L4 #1: EdU z-score, cyclin E line, hydroxyurea = -1.07; EdU z-score, parental, hydroxyurea = 0.542
NAP1L4 #2: EdU z-score, cyclin E line, hydroxyurea = 2.91; EdU z-score, parental, hydroxyurea = 2.26
PGBD3 #1: EdU z-score, cyclin E line, hydroxyurea = -0.672; EdU z-score, parental, hydroxyurea = 1.41
PGBD3 #2: EdU z-score, cyclin E line, hydroxyurea = 0.329; EdU z-score, parental, hydroxyurea = 2.05
